Data as given in PubChem BioAssay AID652259 (Drosophila RNAi Screening Center, 2013)
In all, the deposit lists about 22,000 reagents; below is an unselected part of those with a known target gene and a result. Over the whole deposit, 233 (1.1%) were called active. 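Light values are raw, unnormalised plate reads; the ratio scores behind the reporter calls were not deposited.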 Entries without a mark were called inactive. Names joined by + are all predicted targets of the reagent. The record does not give: the amount of reagent, the time to read-out, the dose of the treatment.

Test: 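Identify new Wingless signalling regulators in fly cells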 (primary screen)
Cells: Drosophila clone 8 imaginal disc epithelial cells
Reagents: long dsRNA against Drosophila genes
Challenge: pathway stimulated by co-transfected Wingless expression plasmid
Measurement: 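Firefly luciferase from a tcf-site Wingless reporter, measured alongside co-transfected Renilla luciferase that tracks transfection; pathway stimulated by a Wingless plasmid; the firefly-to-Renilla ratio is not deposited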
Direction: firefly reporter light: higher = more Wg reporter light, before normalisation; Renilla control light: higher = more transfected or surviving cells
Rule for the call: 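Strong candidates differ from their plate mean by at least two out of four per-plate statistical tests; weak candidates meet just one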
Meaning of the calls: active = candidate regulator (raises or lowers reporter); inactive = not a candidate

predicted target | amplicon | reporter change call, replicate 1 | firefly reporter light, replicate 1 | firefly reporter light, replicate 2 | Renilla control light, replicate 1 | Renilla control light, replicate 2
Lim1 | DRSC17752 | – | 3142 | 6096 | 1602 | 2875
Lim1 | DRSC18677 | – | 35264 | – | 22500 | –
CG11699 | DRSC19419 | – | 24439 | – | 10180 | –
CG14183 | DRSC10182 | – | 6016 | – | 2642 | –
pns | DRSC08598 | – | 4880 | – | 2711 | –
meru | DRSC09400 | – | 3249 | – | 850 | –
meru | DRSC09899 | – | 6199 | – | 2484 | –
meru | DRSC10215 | – | 8675 | – | 3192 | –
AsnRS-m | DRSC07010 | – | 4685 | – | 1696 | –
Nmdar1 | DRSC12071 | – | 3745 | – | 1867 | –
Nmdar1 | DRSC12356 | – | 9302 | – | 2553 | –
HemK2 + Snapin | DRSC00736 | – | 10784 | – | 4312 | –
HemK2 + Snapin | DRSC00737 | – | 3304 | 7159 | 1156 | 1942
fbl | DRSC11886 | – | 14698 | – | 5072 | –
CG11379 | DRSC18629 | – | 16291 | – | 12310 | –
cad | DRSC03502 | – | 6768 | – | 1753 | –
SIFaR | DRSC13467 | – | 2880 | – | 1555 | –
SIFaR | DRSC14266 | – | 41405 | – | 7674 | –
CG9953 | DRSC11106 | – | 1047 | 5377 | 1410 | 3875
ppk28 | DRSC19919 | – | 17085 | – | 7591 | –
TwdlQ | DRSC14745 | – | 6785 | – | 1328 | –
plu | DRSC07665 | – | 4864 | – | 1193 | –
CG30395 | DRSC03896 | – | 18028 | – | 10416 | –
mRpL14 | DRSC18597 | – | 13600 | – | 10838 | –
CG14491 | DRSC06462 | Wg reporter activity raised | 6626 | – | 2864 | –
CG34408 | DRSC17733 | – | 3376 | 6634 | 1019 | 2492
CG34408 | DRSC21926 | – | 6.20e5 | 6.23e5 | 77271 | 97477
SmydA-3 | DRSC02565 | – | 1920 | 6966 | 888 | 3156
SmydA-3 | DRSC02566 | – | 2562 | 4576 | 903 | 2259
CG4367 | DRSC15568 | – | 12858 | – | 3520 | –
cutlet | DRSC00284 | – | 4482 | 12528 | 1483 | 4396
Apt1 | DRSC10348 | – | 8312 | – | 2454 | –
CG9682 | DRSC16536 | – | 2244 | 7079 | 1056 | 2236
Tom | DRSC11306 | – | 4012 | – | 1952 | –
CG16959 | DRSC10230 | – | 2811 | – | 1250 | –
Lcch3 | DRSC22175 | – | 6.30e5 | 6.84e5 | 2.17e5 | 2.19e5
ord | DRSC04706 | – | 2423 | 3794 | 418 | 2400
CG18213 | DRSC15316 | – | 13829 | – | 3270 | –
dnk | DRSC16933 | – | 11920 | – | 3386 | –
MagR | DRSC20092 | – | 19520 | – | 10092 | –
CG7168 | DRSC16208 | – | 2522 | 6837 | 1504 | 1888
RpS17 | DRSC11271 | – | 4816 | – | 2547 | –
CG8100 | DRSC10961 | – | 7211 | – | 3312 | –
Ir94a | DRSC13538 | – | 2813 | – | 1481 | –
CG33722 + CG18749 | DRSC12674 | – | 2913 | – | 1184 | –
CG33722 + CG18749 | DRSC15386 | – | 15435 | – | 3978 | –
beat-VI | DRSC14474 | – | 7229 | – | 2946 | –
beat-VI | DRSC14727 | – | 7696 | – | 3268 | –
CG12490 | DRSC04123 | – | 3163 | 4918 | 742 | 2043
Sgs7 | DRSC11281 | – | 4696 | – | 3113 | –
mRpL51 | DRSC02200 | – | 8544 | – | 1456 | –
Rbp9 | DRSC00416 | – | 2320 | 6176 | 1088 | 1429
Rbp9 | DRSC00779 | Wg reporter activity raised (active) | 16337 | – | 2081 | –
CG8543 | DRSC10990 | – | 2476 | 10425 | 2083 | 4789
CG8543 | DRSC22809 | – | 3.65e5 | 4.24e5 | 1.90e5 | 2.73e5
CG31910 + snoRNA:Me28S-G2743 (retired record) | DRSC00946 | – | 14464 | – | 7365 | –
Rrp4 | DRSC04434 | – | 15334 | – | 3594 | –
CG13073 | DRSC09956 | – | 3912 | – | 2341 | –
asrij | DRSC04175 | – | 3437 | 7177 | 786 | 2560
Tmtc1 | DRSC00147 | – | 18323 | – | 7136 | –
Tmtc1 | DRSC00151 | – | 21715 | – | 8084 | –
Tmtc1 | DRSC00314 | – | 3188 | 6205 | 1387 | 2137
Tmtc1 | DRSC00411 | – | 2860 | 7013 | 1115 | 2666
IPIP | DRSC02164 | – | 15997 | – | 8320 | –
dar1 | DRSC08049 | – | 4613 | – | 1772 | –
dar1 | DRSC08233 | – | 7930 | – | 3169 | –
CG13643 | DRSC14641 | – | 17321 | – | 13816 | –
CG13643 | DRSC14642 | – | 18724 | – | 15458 | –
Tdc1 | DRSC04942 | – | 20640 | – | 11188 | –
CG12479 | DRSC19459 | – | 15936 | – | 7600 | –
mthl9 | DRSC08506 | – | 5136 | – | 2522 | –
CG15395 | DRSC00409 | – | 2427 | 6199 | 725 | 1728
gammaSnap2 | DRSC15992 | – | 16621 | – | 4240 | –

As entered above.
CG18213 [DRSC15316], firefly reporter light, replicate 1 = 13829
CG15395 [DRSC00409], firefly reporter light, replicate 1 = 2427
Entry of dar1 [DRSC08233] in “firefly reporter light, replicate 1”: 7930
Entry of dar1 [DRSC08049] under “firefly reporter light, replicate 1”: 4613
Entry for CG12479 [DRSC19459] under “firefly reporter light, replicate 1”: 15936
Under “Renilla control light, replicate 1”, Sgs7 [DRSC11281] reads 3113
